Reference: patent publication US5739104A (Schering Corporation, priority 1995, dated 1998)
Strings that start with PEPTIDE1 are HELM notation: dots part the residues, brackets hold end groups and non-standard residues.

Assay: general procedure: solution-phase peptide synthesis; trimethylacetyl (pivaloyl) chloride/4-methylmorpholine for fragment coupling; BO

Row | Substance | step yield (late stage modification step) | other results
1 | Cyclo-depsi-N-methyl-O-benzyl-threonyl-(2-hydroxyl-2-cyclohexylacetyl)-N-methylvalyl-phenylanalyl-N-methylphenylanalyl-prolyl-allo-isoleucyl-N-methylvalyl-leucine | – | cyclisation yield (cyclisation step): 16%
2 | Cyclo-depsi-N-methylthreonyl-(2-hydroxyl-2-cyclohexylacetyl)-N-methylvalyl- phenylanalyl-D-N-methylphenylanalyl-prolyl-allo-isoleucyl-N-methylvalyl-leucine | 49% of yield | –
3 | Cyclo-depsi-N-methylthreonyl-(2-hydroxyl-3-methylpentanoyl)-N-methylvalyl-phenylanalyl-N-methylphenylanalyl-prolyl-allo-isoleucyl-N-methylvalyl-leucin | 22% | –
4 | N-Boc-phenylanalyl-N-methylphenylanalyl-prolyl-allo-isoleucyl-N-methylvalyl-leucyl-L-O-Bn-threonyl-(R)-hexahydromandelate-L-methyvaline-O-benzyl ester | – | step yield (coupling step): 61%
5 | PEPTIDE1{[MeThr].[R-Hcha].[MeVal].F.[MePhe].P.[aIle].[MeVal].L}$PEPTIDE1,PEPTIDE1,1:R1-9:R2$$$V2.0 | 65% | –
